# According to patent US5480892A, “(N-phthalimidoalkyl)piperidines” (The Du Pont Merck Pharmaceutical Company, priority 1994, dated 1996):
# At least one structure is not confirmed: it was looked up by name or label, or the drawing left a doubt.
# Experiments:
# [1] = test system: isolation-induced aggression in mice; assay: Isolation-Induced Aggression in Mice; assay type: in vivo, mouse (male Balb/c); settings: statement on Table II
# [2] = test system: PCP-induced turning behavior in rats; assay: PCP-Induced Turning Behavior in Rats; assay type: in vivo, rat (male Sprague-Dawley); settings: statement on Table III
# Procedure: Male Sprague-Dawley rats (CD/CR, Charles River), weighing 190-290 g, were used for surgery. In order to spare […] neurons, rats were injected with 25 mg/kg imipramine intraperitoneal (i.p.) 30 min before surgery. The rats were anesthetized with a 1:1.2 ratio mixture of Xylazine:Ketamine given 0.1 mL/100 g body weight intramuscular (i.m.). A Ringers-Wydaze (100:0.01) solution was given to prevent dehydration. Dopamine was depleted in the right striatum by injecting the neurotoxin 6-hydroxydopamine (6-OHDA) into the substantia nigra of the right cerebral hemisphere. Five mg of 6-OHDA was dissolved in 5 mL of a 0.04% ascorbic acid solution which had been deoxygenated with nitrogen. Five μL of the 6-OHDA solution was injected into the substantia nigra through a 26 gauge needle over a five min period. […]
# Rotation rate and direction were determined with Coulbourn Instruments Rotometry Monitors. Clockwise and counter clockwise rotations were recorded at 30 and 60 min intervals. […]
# The data was analyzed with an analysis of variance statistical test, and individual comparisons of each dose of test drug to control were made with Dunnett's multiple range test. The ED50 was calculated with a Litchfield and Wilcoxon test using percent of control values.
smiles,measurement,setting,value
"O=C1[C@H]2CCCC[C@H]2C(=O)N1CC1CCN(CCc2ccccc2)CC1 [Example 3, 2-[1-(2-Phenylethyl)-4-piperidinylmethyl]-cis-3a,4,5,6,7,7a-hexahydro-1H-isoindole-1,3(2H)-dione]",inhibiting the isolation-induced aggressive behavior,[1],potent activities
same,inhibiting PCP-induced turning behavior,[2],potent activity
